Values quoted from earlier work, collected in patent US11478453B2, “Treatment for glioblastoma” (HADASIT MEDICAL RESEARCH SERVICES AND DEVELOPMENT LTD., priority 2016, dated 2022).
For at least one compound, name, drawing or mass did not settle the structure.

Tested on: GBM
Conditions: GBM patients, combined chemoradiation using temozolomide; cited from earlier work

## Cn1nnc2c(C(N)=O)ncn2c1=O [temozolomide]
  Median survival: 14.6 months
